The record followed here is paper PMC3829939.

Sequences of proteins named here, by UniProt entry; tags and fusion partners are left off.
UniProt Q15717: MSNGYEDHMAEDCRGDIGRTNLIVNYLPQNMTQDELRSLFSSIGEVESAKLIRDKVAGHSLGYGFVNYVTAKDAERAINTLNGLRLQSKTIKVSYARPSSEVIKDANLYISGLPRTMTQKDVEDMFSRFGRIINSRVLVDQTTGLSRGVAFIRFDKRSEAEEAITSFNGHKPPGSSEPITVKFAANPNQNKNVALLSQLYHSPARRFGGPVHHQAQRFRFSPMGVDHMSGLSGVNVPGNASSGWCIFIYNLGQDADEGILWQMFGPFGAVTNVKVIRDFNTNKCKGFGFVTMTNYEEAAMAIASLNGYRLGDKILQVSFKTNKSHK
UniProt P35222: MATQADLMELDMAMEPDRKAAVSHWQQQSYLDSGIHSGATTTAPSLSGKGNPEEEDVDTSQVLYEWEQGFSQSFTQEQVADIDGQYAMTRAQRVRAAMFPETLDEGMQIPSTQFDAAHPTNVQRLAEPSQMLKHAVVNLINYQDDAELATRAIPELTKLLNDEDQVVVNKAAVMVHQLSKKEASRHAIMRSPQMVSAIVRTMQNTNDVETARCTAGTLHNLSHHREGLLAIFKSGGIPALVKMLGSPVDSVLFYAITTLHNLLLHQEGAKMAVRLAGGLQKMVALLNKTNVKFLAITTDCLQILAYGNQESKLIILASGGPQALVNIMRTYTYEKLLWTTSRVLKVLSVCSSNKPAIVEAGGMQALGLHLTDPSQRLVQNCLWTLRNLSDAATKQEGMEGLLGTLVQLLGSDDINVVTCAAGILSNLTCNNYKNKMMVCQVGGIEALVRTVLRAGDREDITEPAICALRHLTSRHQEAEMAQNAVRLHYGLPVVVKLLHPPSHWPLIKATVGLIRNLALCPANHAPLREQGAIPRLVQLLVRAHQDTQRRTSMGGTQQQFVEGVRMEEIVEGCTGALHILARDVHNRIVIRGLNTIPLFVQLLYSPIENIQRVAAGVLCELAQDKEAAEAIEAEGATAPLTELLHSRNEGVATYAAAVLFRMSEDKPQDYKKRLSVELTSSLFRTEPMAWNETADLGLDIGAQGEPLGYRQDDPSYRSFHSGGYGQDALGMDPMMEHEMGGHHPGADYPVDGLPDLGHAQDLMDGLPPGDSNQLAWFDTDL

In this test the target is HuR (human (endogenous in MCF7, MCF7-MS and MDA-MB-231)) (UniProt Q15717). Put plainly: co-IP; HuR immunoprecipitates blotted for beta-catenin; MCF7, MCF7-MS and MDA-MB-231 cells; CO-IP buffer (50mM tris-HCl pH 7.5, 150 mM NaCl, 5mM EDTA, 1% NP40) with protease inhibitors.

No constants are given. Whether binding was seen depends on the method and setting. Binding seen in cells or lysates may run through a third protein. Some entries that bind do so weakly or less than the wild type.

Take “beta-catenin (from UniProt P35222 1-781)”: the binding entry is listed as “binds”.
